According to US9969887B2, “Merocyanine-based compounds, and dyes, kits and contrast medium compositions for labelling biomolecules comprising the same” (SFC CO., LTD., priority 2016, dated 2018):
Some entries share one result that the patent states for a list of compounds. At least one compound was matched to its structure with a doubt left.

System: DNA
Experiment: Absorption and emission spectra and quantum efficiency in the presence of DNA
Type: physicochemical
Protocol: Absorption spectra (λabs), emission spectra (λem) and quantum efficiency measured in the presence of DNA with compounds 1 to 8 and 36 to 39, and commercially available SYBR® safe were measured and are shown in Table 3 below.

| SMILES | quantum efficiency compared with SYBR safe |
| --- | --- |
| O=C(CCCCCN1C=CC2=C3c4oc5ccccc5[n+]4CCC3Oc3cccc1c32)NCCOCCNC(=O)CCCCCN1C=CC2=C3c4oc5ccccc5[n+]4CCC3Oc3cccc1c32 (stereo not drawn) [Compound 36] | significantly better quantum efficiency than SYBR® safe |
| O=C(CCCCCN1C=CC2=C3c4sc5ccccc5[n+]4CCC3Oc3cccc1c32)NCCCOCCOCCOCCCNC(=O)CCCCCN1C=CC2=C3c4sc5ccccc5[n+]4CCC3Oc3cccc1c32 (stereo not drawn) [Compound 2] | significantly better quantum efficiency than SYBR® safe |
| O=C(CCCCCN1C=CC2=C3c4sc5ccc(Cl)cc5[n+]4CCC3Oc3cccc1c32)NCCOCCOCCNC(=O)CCCCCN1C=CC2=C3c4sc5ccc(Cl)cc5[n+]4CCC3Oc3cccc1c32 (stereo not drawn) [Compound 6] | significantly better quantum efficiency than SYBR® safe |
| O=C(CCCCCN1C=CC2=C3c4sc5ccc(Cl)cc5[n+]4CCC3Oc3cccc1c32)NCCOCCNC(=O)CCCCCN1C=CC2=C3c4sc5ccc(Cl)cc5[n+]4CCC3Oc3cccc1c32 (stereo not drawn) [Compound 5] | significantly better quantum efficiency than SYBR® safe |
| O=C(CCCCCN1C=CC2=C3c4oc5ccccc5[n+]4CCC3Oc3cccc1c32)NCCOCCOCCNC(=O)CCCCCN1C=CC2=C3c4oc5ccccc5[n+]4CCC3Oc3cccc1c32 (stereo not drawn) [Compound 37] | significantly better quantum efficiency than SYBR® safe |
| O=C(CCCCCN1C=CC2=C3c4sc5ccccc5[n+]4CCC3Oc3cccc1c32)NCCOCCOCCOCCNC(=O)CCCCCN1C=CC2=C3c4sc5ccccc5[n+]4CCC3Oc3cccc1c32 (stereo not drawn) [Compound 4] | significantly better quantum efficiency than SYBR® safe |
| O=C(CCCCCN1C=CC2=C3c4sc5ccccc5[n+]4CCC3Oc3cccc1c32)NCCOCCNC(=O)CCCCCN1C=CC2=C3c4sc5ccccc5[n+]4CCC3Oc3cccc1c32 (stereo not drawn) [Compound 1] | significantly better quantum efficiency than SYBR® safe |
| O=C(CCCCCN1C=CC2=C3c4sc5ccc(Cl)cc5[n+]4CCC3Oc3cccc1c32)NCCCOCCOCCOCCCNC(=O)CCCCCN1C=CC2=C3c4sc5ccc(Cl)cc5[n+]4CCC3Oc3cccc1c32 (stereo not drawn) [Compound 8] | significantly better quantum efficiency than SYBR® safe |
| O=C(CCCCCN1C=CC2=C3c4sc5ccccc5[n+]4CCC3Oc3cccc1c32)NCCOCCOCCNC(=O)CCCCCN1C=CC2=C3c4sc5ccccc5[n+]4CCC3Oc3cccc1c32 (stereo not drawn) [Compound 3] | significantly better quantum efficiency than SYBR® safe |
| O=C(CCCCCN1C=CC2=C3c4sc5ccc(Cl)cc5[n+]4CCC3Oc3cccc1c32)NCCOCCOCCOCCNC(=O)CCCCCN1C=CC2=C3c4sc5ccc(Cl)cc5[n+]4CCC3Oc3cccc1c32 (stereo not drawn) [Compound 7] | significantly better quantum efficiency than SYBR® safe |
| O=C(CCCCCN1C=CC2=C3c4oc5ccccc5[n+]4CCC3Oc3cccc1c32)NCCOCCOCCOCCNC(=O)CCCCCN1C=CC2=C3c4oc5ccccc5[n+]4CCC3Oc3cccc1c32 (stereo not drawn) [Compound 38] | significantly better quantum efficiency than SYBR® safe |
| O=C(CCCCCN1C=CC2=C3c4oc5ccccc5[n+]4CCC3Oc3cccc1c32)NCCCOCCOCCOCCCNC(=O)CCCCCN1C=CC2=C3c4oc5ccccc5[n+]4CCC3Oc3cccc1c32 (stereo not drawn) [Compound 39] | significantly better quantum efficiency than SYBR® safe |
